{
  "source": "paper PMC2034084",
  "about": "“Pharmacokinetics and binding of the bioreductive probe for hypoxia, NITP: effect of route of administration” (British Journal of Cancer, 1995)",
  "system": "CaNT tumours",
  "assay": "Bound adducts of NITP in cells from tumours, fluorescent immunochemical staining and flow cytometry",
  "format": "in vivo, CBA mice",
  "conditions": "i.p. in peanut oil + 10% DMSO, 0.45 umol g-1",
  "description": "Britsh Journal of Cancer (1995) 72, 1462-1468 ft (32) 1995 Stockton Press All rights reserved 0007-0920/95 $12.00 Pharmacokinetics and binding of the bioreductive probe for hypoxia, NITP: effect of route of administration RJ Hodgkiss, MRL Stratford, MF Dennis and SA Hill Gray Laboratory Cancer Research Trust, P.O. Box 100, Mount Vernon Hospital, Northwood, Middlesex HA6 2JR, UK. Summary The novel compound 7-[4'-(2-nitroimidazol-l-yl)-butyl]-theophylline (NITP) can be used as an immunologically detectable probe for hypoxic cells. Because of the limited water solubility of NITP, it has been administered dissolved in peanut oil with 10% dimethylsulphoxide (DMSO). A new aqueous formulation has been devised, based on a 50% solution of a modified P-cyclodextrin (Molecusol HPB), which increases the water solubility of NITP 10-fold. […] Binding of the marker to hypoxic cells within tumours was also measured after the different routes of administration. […] The novel compound 7-[4'-(2-nitroimidazol-1-yl)-butyl]- theophylline (NITP), has been described as an immuno- logically detectable bioreductive probe for hypoxic cells (Hodgkiss et al., 1991), and appears to offer promise as a method of quantifying tumour hypoxia in vivo. […]",
  "data": [
    {"smiles": "Cn1c(=O)c2c(ncn2CCCCn2ccnc2[N+](=O)[O-])n(C)c1=O", "note": "[NITP, 7-[4'-(2-nitroimidazol-l-yl)-butyl]-theophylline]", "values": [
      {"measurement": "time at which binding of NITP to cells in tumours began", "result": "~30", "unit": "min"},
      {"measurement": "time to plateau of binding in tumour cells", "result": "about 60 min"}
    ]}
  ]
}
